In PMC13546301:
These are yes or no findings as the source states them, for the method shown. In cells and extracts the contact can be indirect. A yes stands for co-enrichment or nearness to the bait. Other partners may have been found.

The chains behind the UniProt entries cited, without tags or fusion partners. Where a name states a change or a piece, a line headed by the entry shows the natural chain unless it says otherwise. Residues count along the entry.
UniProt P61215: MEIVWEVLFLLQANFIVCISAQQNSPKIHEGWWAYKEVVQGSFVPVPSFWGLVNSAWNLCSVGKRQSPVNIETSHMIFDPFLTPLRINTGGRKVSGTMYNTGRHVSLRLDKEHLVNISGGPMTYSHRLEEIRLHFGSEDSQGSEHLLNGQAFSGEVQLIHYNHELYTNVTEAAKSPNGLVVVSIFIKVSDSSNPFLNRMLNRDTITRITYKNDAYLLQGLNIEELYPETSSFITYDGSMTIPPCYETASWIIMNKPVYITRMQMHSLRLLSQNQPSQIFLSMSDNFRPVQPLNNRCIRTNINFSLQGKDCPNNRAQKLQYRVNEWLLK
UniProt B0V2N1, residues 30-1907: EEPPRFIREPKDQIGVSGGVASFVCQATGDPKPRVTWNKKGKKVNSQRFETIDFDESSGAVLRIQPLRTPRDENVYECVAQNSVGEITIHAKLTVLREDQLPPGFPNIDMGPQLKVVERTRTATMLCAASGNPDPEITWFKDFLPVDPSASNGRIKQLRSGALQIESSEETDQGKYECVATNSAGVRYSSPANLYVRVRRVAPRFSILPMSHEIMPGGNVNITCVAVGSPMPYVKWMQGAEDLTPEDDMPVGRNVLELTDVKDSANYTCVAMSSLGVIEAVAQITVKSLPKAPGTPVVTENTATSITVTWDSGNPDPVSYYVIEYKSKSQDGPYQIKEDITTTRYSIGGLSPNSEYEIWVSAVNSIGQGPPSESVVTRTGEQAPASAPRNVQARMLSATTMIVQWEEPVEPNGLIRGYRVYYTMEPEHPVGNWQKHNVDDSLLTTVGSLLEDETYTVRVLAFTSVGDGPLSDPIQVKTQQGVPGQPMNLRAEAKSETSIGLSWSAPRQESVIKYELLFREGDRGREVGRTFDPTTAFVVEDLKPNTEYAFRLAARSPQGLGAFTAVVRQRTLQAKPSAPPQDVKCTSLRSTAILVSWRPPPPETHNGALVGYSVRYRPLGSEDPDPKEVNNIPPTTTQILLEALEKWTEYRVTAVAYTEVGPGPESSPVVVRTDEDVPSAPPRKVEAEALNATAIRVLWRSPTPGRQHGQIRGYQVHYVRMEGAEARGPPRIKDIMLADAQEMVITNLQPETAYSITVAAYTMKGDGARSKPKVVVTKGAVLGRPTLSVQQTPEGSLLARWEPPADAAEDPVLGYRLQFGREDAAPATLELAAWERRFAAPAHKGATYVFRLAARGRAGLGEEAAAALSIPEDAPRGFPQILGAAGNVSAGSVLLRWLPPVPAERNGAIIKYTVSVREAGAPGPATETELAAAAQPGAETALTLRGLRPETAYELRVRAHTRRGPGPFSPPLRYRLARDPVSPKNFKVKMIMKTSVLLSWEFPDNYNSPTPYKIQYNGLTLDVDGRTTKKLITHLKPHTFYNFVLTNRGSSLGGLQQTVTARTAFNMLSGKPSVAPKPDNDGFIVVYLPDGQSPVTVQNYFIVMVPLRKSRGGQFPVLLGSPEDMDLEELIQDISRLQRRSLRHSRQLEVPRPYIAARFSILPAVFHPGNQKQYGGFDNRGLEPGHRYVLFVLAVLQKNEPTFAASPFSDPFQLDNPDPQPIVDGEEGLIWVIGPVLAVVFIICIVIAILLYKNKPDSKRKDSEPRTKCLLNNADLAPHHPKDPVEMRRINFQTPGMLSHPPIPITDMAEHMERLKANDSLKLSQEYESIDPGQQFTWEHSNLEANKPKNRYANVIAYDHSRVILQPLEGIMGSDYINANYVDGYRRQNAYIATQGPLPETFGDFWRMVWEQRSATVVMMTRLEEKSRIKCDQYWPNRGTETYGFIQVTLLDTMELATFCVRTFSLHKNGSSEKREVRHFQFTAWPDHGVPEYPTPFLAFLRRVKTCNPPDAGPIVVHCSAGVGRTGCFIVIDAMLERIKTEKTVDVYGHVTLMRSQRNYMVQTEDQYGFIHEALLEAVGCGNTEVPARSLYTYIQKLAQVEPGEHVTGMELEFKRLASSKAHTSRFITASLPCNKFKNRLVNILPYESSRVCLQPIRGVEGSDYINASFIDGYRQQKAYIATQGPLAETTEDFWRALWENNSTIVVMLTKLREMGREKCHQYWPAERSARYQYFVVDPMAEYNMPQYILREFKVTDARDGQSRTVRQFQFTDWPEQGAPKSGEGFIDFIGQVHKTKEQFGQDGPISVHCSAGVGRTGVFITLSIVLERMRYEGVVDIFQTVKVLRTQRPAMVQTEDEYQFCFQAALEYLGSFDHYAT

B1: Leucine-rich repeat transmembrane neuronal protein 1 (protein, UniProt Q8K377 35-522)
chain: APSGCPGQCRCEGRLLYCEALNLTEAPHNLSGLLGLSLRYNSLSELRAGQFTGLMQLTWLYLDHNHICSVQGDAFQKLRRVKELTLSSNQITELANTTFRPMPNLRSVDLSYNKLQALAPDLFHGLRKLTTLHMRANAIQFVPVRIFQDCRSLKFLDIGYNQLKSLARNSFAGLFKLTELHLEHNDLIKVNFAHFPRLISLHSLCLRRNKVAIVVSSLDWVWNLEKMDLSGNEIEYMEPHVFETVPYLQTLQLDSNRLTYIEPRILNSWKSLTSITLAGNLWDCGRNVCALASWLSNFQGRYDANLQCASPEYAQGEDVLDAVYAFHLCEDGAEPTSGHLLSVAVTNRSDLTPPESSATTLVDGGEGHDGTFEPITVALPGGEHAENAVQIHKVVTGTMALIFSFLIVVLVLYVSWKCFPASLRQLRQCFVTQRRKQKQKQTMHQMAAMSAQEYYVDYKPNHIEGALVIINEYGSCTCHQQPARECEV
B2: SHSA7 (protein, UniProt Q8C3Q5 23-558)
chain: RPSNDTSSVAPGPLPALLAHLRRLTGALAGGGSAAGTSANATKTSPASGTGAAARAPPPAELCHGYYDVMGQYDATFNCSTGSYRFCCGTCHYRFCCEHRHMRLAQASCSNYDTPRWATTPPPLAGGAGGAGGAGGGPGPGQAGWLEGGRAGGAGGRGGEGPGGSTAYVVCGVISFALAVGVGAKVAFSKASRAPRAHREINVPRALVDILRHQAGPATRPDRARSSSLTPGLGGPDSMAPRTPKNLYNTMKPSNLDNLHYNVNSPKHHAATLDWRAMPPPSPSLHYSTLSCSRSFHNLSHLPPSYEAAVKSELNRYSSLKRLAEKDLDEAYLKRRQLEMPRGTLPLHALRRPGTGGGYRMDGWGGPEELGLAPAPNPRRVMSQEHLLGDGSRASRYEFTLPRARLVSQEHLLLSSPEALRQSREHLLSPPRSPALPPDPTTRASLAASHSNLLLGPGGPPTPLHGLPPSGLHAHHHHALHGSPQPAWMSDAGGGGGTLARRPPFQRQGTLEQLQFIPGHHLPQHLRTASKNEVTV
B3: NOE3 (protein, UniProt P63056 24-478)
chain: QTLPSLVGLNTTRLSAPDTLTQISPKEGWQVYSSAQDPDGRCICTVVAPEQNLCSRDAKSRQLRQLLEKVQNMSQSIEVLNLRTQRDFQYVLKMETQMKGLKAKFRQIEDDRKTLMTKHFQELKEKMDELLPLIPVLEQYKTDAKLITQFKEEIRNLSSVLTGIQEEIGAYDYEELHQRVLSLETRLRDCMKKLTCGKLMKITGPITVKTSGTRFGAWMTDPLASEKNNRVWYMDSYTNNKIVREYKSIADFVSGAESRTYNLPFKWAGTNHVVYNGSLYFNKYQSNIIIKYSFDLGRVLAQRSLEYAGFHNVYPYTWGGFSDIDLMADEIGLWAVYATNQNAGNIVISQLNQDTLEVMKSWSTGYPKRSAGESFMICGTLYVTNSHLTGAKVYYSYSTKTSTYEYTDIPFHNQYFHISMLDYNARDRALYAWNNGHQVLFNVTLFHIIKTEDDT

Each binder was assayed against Carbonic anhydrase-related protein 10 (mouse (endogenous in mouse brain)) (UniProt P61215) (assay: affinity purification with mass spectrometry; reverse meAP-MS with 1-4 antibodies per target against constituents of the NRX interactome (PTPRS, T178B, CAH10, NXPH3, TAFA1, LRRT4, anti-HA for HA-Cbln1/2 and others); solubilised mouse brain membrane fractions; target knock-outs, wild-type brains or IgGs as controls, tnR threshold 0.25).

| Binder | binding |
| --- | --- |
| B1 | binds |
| B2 | binds |
| B3 | binds |

Each binder was assayed against Receptor-type tyrosine-protein phosphatase S (mouse (endogenous in mouse brain)) (UniProt B0V2N1) in the same assay as above.

| Binder | binding |
| --- | --- |
| B1 | binds |
| B2 | binds |
| B3 | binds |
